Assay results as given in article PMC3673817.
Results are given in words; binding and its absence hold for the method and conditions named. In cells and extracts the contact can be indirect. Some entries that bind do so weakly or less than the wild type.

The chains behind the UniProt entries cited, without tags or fusion partners.
UniProt Q15075: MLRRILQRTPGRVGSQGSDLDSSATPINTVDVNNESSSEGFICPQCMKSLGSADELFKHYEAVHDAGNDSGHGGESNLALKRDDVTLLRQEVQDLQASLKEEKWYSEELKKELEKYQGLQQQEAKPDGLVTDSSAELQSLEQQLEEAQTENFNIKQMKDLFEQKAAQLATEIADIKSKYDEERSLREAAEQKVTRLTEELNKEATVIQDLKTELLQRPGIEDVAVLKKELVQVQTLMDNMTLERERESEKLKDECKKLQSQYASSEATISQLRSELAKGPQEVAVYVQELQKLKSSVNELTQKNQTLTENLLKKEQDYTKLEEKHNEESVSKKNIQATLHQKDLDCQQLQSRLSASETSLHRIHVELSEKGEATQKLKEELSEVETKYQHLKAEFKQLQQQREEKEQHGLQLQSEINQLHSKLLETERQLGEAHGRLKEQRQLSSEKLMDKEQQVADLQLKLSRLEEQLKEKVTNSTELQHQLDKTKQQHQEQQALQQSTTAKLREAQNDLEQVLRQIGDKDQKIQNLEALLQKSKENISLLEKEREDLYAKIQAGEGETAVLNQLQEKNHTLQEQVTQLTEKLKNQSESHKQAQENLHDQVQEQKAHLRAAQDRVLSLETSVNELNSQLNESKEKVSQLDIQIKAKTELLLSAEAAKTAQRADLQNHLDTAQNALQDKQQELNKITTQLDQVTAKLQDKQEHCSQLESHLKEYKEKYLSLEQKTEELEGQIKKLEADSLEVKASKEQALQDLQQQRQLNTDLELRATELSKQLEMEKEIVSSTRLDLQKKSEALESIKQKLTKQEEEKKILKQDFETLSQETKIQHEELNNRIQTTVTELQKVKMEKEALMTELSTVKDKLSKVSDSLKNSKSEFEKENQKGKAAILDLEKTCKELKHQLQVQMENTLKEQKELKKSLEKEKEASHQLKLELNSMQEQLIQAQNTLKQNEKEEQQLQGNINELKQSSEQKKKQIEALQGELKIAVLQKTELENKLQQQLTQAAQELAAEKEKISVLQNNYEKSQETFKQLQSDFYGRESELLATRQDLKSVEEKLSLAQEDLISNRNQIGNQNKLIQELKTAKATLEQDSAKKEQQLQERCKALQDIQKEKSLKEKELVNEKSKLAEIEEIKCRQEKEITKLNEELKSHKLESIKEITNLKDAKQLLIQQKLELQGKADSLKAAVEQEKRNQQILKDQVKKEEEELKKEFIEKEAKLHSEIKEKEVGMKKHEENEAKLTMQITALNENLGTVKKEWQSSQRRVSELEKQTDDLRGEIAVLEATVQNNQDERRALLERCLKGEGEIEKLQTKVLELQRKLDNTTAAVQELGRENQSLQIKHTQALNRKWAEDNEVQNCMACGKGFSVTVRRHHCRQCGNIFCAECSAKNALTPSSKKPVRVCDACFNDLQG

Target: unmodified EEA1 (in the co-precipitation with p97) (UniProt Q15075)
Assay: co-IP; data not shown; p97 co-precipitated with modified and unmodified EEA1

binding: binds
Substance: p97 ATPase (from UniProt P55072 1-806)
